Measurements reported in PubChem BioAssay AID1259254 (NCATS, 2017)

Screen: 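Genome-wide screen for genes that prevent DNA re-replication in cancer cells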 (primary screen)
System: human HCT116 colorectal cancer cells
Reagents: single siRNA against human genes
Timing: 3 days
Measurement: 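Imaged Hoechst DNA stain sorts each cell into a cycle phase by DNA amount; per plate, G2 fraction set to 0% for non-targeting and 100% for GMNN siRNA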
Scale: G2 robust z-score and G2 cells, % of GMNN control: higher = more G2 cells, more excess DNA replication; raw share of cells in G2: higher = larger share of cells with G2 DNA content
Call rule: 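An siRNA counts as active if its G2 robust z-score lies at least 5 MADs above the screen median; here such calls match roughly 38% of GMNN control or more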
In all, the deposit lists about 59,000 reagents; below is a part drawn at random. About 1,550 of all reagents (2.6%) were called active. 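G2 share is only a proxy for re-replication; each gene was hit by three separate siRNAs, and active genes were retested.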 Raw values are not corrected between plates. Reagents against one gene are numbered here. Not stated in the record: the amount of reagent.

target gene	reagent no.	G2 robust z-score	G2 cells, % of GMNN control	raw share of cells in G2 (%)	Call
NORAD (non-coding RNA activated by DNA damage)	1	-0.14	1.98	3.67	inactive
NORAD (non-coding RNA activated by DNA damage)	2	-0.63	-1.47	3.22	inactive
NORAD (non-coding RNA activated by DNA damage)	3	1.16	11.1	7.34	inactive
ANKIB1 (ankyrin repeat and IBR domain containing 1)	1	-0.561	-0.978	5.51	inactive
ANKIB1 (ankyrin repeat and IBR domain containing 1)	2	-0.0861	2.36	5.12	inactive
ANKIB1 (ankyrin repeat and IBR domain containing 1)	3	-0.541	-0.838	3.48	inactive
FANCL (FA complementation group L)	1	2.15	18.1	14.4	inactive
FANCL (FA complementation group L)	2	0.225	4.55	6.07	inactive
FANCL (FA complementation group L)	3	-1.07	-4.55	2.44	inactive
DGKK (diacylglycerol kinase kappa)	1	-1.01	-4.13	4.3	inactive
DGKK (diacylglycerol kinase kappa)	2	-0.478	-0.392	5.05	inactive
DGKK (diacylglycerol kinase kappa)	3	1.24	11.7	7.44	inactive
EYA1 (EYA transcriptional coactivator and phosphatase 1)	1	6.36	47.7	22.6	active
EYA1 (EYA transcriptional coactivator and phosphatase 1)	2	3.34	26.4	15.3	inactive
EYA1 (EYA transcriptional coactivator and phosphatase 1)	3	3.31	26.2	13	inactive
LOC283804	1	-0.598	-1.24	3.19	inactive
LOC283804	2	0.385	5.68	5.24	inactive
LOC283804	3	1.45	13.2	7.27	inactive
MACROH2A2 (macroH2A.2 histone)	1	-0.809	-2.72	3.48	inactive
MACROH2A2 (macroH2A.2 histone)	2	0.217	4.49	6	inactive
MACROH2A2 (macroH2A.2 histone)	3	0.379	5.64	4.94	inactive
TIGD5 (tigger transposable element derived 5)	1	-0.745	-2.28	3.99	inactive
TIGD5 (tigger transposable element derived 5)	2	0.804	8.62	9.68	inactive
TIGD5 (tigger transposable element derived 5)	3	-0.809	-2.73	3.45	inactive
CPEB1 (cytoplasmic polyadenylation element binding protein 1)	1	-0.86	-3.08	3.11	inactive
CPEB1 (cytoplasmic polyadenylation element binding protein 1)	2	-0.82	-2.8	4.49	inactive
CPEB1 (cytoplasmic polyadenylation element binding protein 1)	3	-0.469	-0.336	4.23	inactive
MRRF (mitochondrial ribosome recycling factor)	1	-0.74	-2.24	3.13	inactive
MRRF (mitochondrial ribosome recycling factor)	2	0.674	7.71	5.42	inactive
MRRF (mitochondrial ribosome recycling factor)	3	0.818	8.73	5.69	inactive
HERC6	1	-0.401	0.149	4.49	inactive
HERC6	2	1.03	10.2	8.59	inactive
HERC6	3	-0.49	-0.481	6.22	inactive
SEMA4D (semaphorin 4D)	1	-1.18	-5.35	2.11	inactive
SEMA4D (semaphorin 4D)	2	0.722	8.04	9.19	inactive
SEMA4D (semaphorin 4D)	3	-1.34	-6.46	3.93	inactive
SEMA4D (semaphorin 4D)	4	-0.189	1.64	4.55	inactive
SEMA4D (semaphorin 4D)	5	-0.513	-0.645	2.98	inactive
SEMA4D (semaphorin 4D)	6	0.151	4.03	5.81	inactive
PLEKHG1 (pleckstrin homology and RhoGEF domain containing G1)	1	1.68	14.8	10.2	inactive
PLEKHG1 (pleckstrin homology and RhoGEF domain containing G1)	2	-0.799	-2.65	3.19	inactive
PLEKHG1 (pleckstrin homology and RhoGEF domain containing G1)	3	-0.726	-2.14	2.35	inactive
SLC6A19	1	1.24	11.7	8.56	inactive
SLC6A19	2	0.811	8.67	8.34	inactive
SLC6A19	3	-0.113	2.18	6.84	inactive
ALG9 (ALG9 alpha-1,2-mannosyltransferase)	1	0.878	9.14	7.51	inactive
ALG9 (ALG9 alpha-1,2-mannosyltransferase)	2	0.991	9.94	8.47	inactive
ALG9 (ALG9 alpha-1,2-mannosyltransferase)	3	3.51	27.7	16.9	inactive
EHBP1 (EH domain binding protein 1)	1	1.11	10.8	7.06	inactive
EHBP1 (EH domain binding protein 1)	2	-0.939	-3.64	3.04	inactive
EHBP1 (EH domain binding protein 1)	3	-0.441	-0.132	3.88	inactive
SERPINA9 (serpin family A member 9)	1	1.33	12.3	11.2	inactive
SERPINA9 (serpin family A member 9)	2	-0.141	1.98	5.73	inactive
SERPINA9 (serpin family A member 9)	3	0.475	6.31	6.59	inactive
C3orf52 (chromosome 3 open reading frame 52)	1	-1.03	-4.26	2.67	inactive
C3orf52 (chromosome 3 open reading frame 52)	2	0.52	6.63	7.2	inactive
C3orf52 (chromosome 3 open reading frame 52)	3	0.477	6.32	4.11	inactive
SKIC2 (SKI2 subunit of superkiller complex)	1	-1.35	-6.52	3.49	inactive
SKIC2 (SKI2 subunit of superkiller complex)	2	-1.36	-6.62	2.28	inactive
SKIC2 (SKI2 subunit of superkiller complex)	3	2.24	18.7	10.2	inactive
PAGE2 (PAGE family member 2)	1	3.35	26.5	13.2	inactive
PAGE2 (PAGE family member 2)	2	-0.826	-2.84	2.16	inactive
PAGE2 (PAGE family member 2)	3	-0.673	-1.77	2.63	inactive
CWC27 (CWC27 spliceosome associated cyclophilin)	1	-1.06	-4.52	4.7	inactive
CWC27 (CWC27 spliceosome associated cyclophilin)	2	-0.968	-3.84	4.03	inactive
CWC27 (CWC27 spliceosome associated cyclophilin)	3	2.69	21.9	10.9	inactive
WHAMMP2 (WHAMM pseudogene 2)	1	3.03	24.3	13	inactive
WHAMMP2 (WHAMM pseudogene 2)	2	4.4	33.9	16.3	inactive
WHAMMP2 (WHAMM pseudogene 2)	3	-0.287	0.947	3.44	inactive

Part of the list above in another layout.
target gene | reagent no. | G2 robust z-score | G2 cells, % of GMNN control | raw share of cells in G2 (%) | Call
C3orf52 (chromosome 3 open reading frame 52) | 1 | -1.03 | -4.26 | 2.67 | inactive
C3orf52 (chromosome 3 open reading frame 52) | 2 | 0.52 | 6.63 | 7.2 | inactive
C3orf52 (chromosome 3 open reading frame 52) | 3 | 0.477 | 6.32 | 4.11 | inactive
